Values from PubChem BioAssay AID686937 (Drosophila RNAi Screening Center, 2013).
In all, the deposit lists about 23,000 reagents; below is a random part of those that have a named target and a result. 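Reduced-secretion tags in replicate 1 do not always agree with the z-scores; no criterion for assigning the tags was given.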 The numbers tell different reagents against one gene apart. Names joined by + are all predicted targets of the reagent. Not given: the amount of reagent.

- Assay: 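Knock-downs that reduce output of a secreted reporter enzyme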 (primary screen)
- System: Drosophila S2 cells expressing secreted horseradish peroxidase
- Reagents: long dsRNA against Drosophila genes
- Time to read-out: about 5.5 days (5 days dsRNA, then 12 h reporter induction)
- Challenge: reporter expression induced after 5 days of dsRNA, read 12 h later; inducer not stated
- Measured: 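Chemiluminescent measurement of peroxidase in the medium 12 h after reporter induction, following 5 days of dsRNA, given as a z-score per plate; higher means more secretion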
- Scale: z-score: higher = more reporter secreted into medium

no.	gene knocked down	reagent	z-score, replicate 1	z-score, replicate 2	z-score, replicate 3	z-score, replicate 4	phenotype, replicate 1
1	CG14109	1	0.4	0.46			
2	CG32537	1	0.31	0.35			
3	CG15546	1	0.44	0.4			
4	CG15546	2	1.42	0.25			
5	CG34299	1	0.11	-0.15			
6	CG5225	1	0.27	0.39			
7	CG5167	1	0.4	0.7			
8	comt (comatose)	1	-4.48	-3.47			reduced secretion
9	CG3119	1	-0.04	0.21			
10	CG2790	1	0.63	0.61			
11	CG30271	1	0.14	0.32			
12	Prosbeta5R1 (Proteasome beta5 subunit-related 1)	1	-0.16	0.4			
13	Gbs-70E (Glycogen binding subunit 70E)	1	0.4	0.22			
14	ppk5 (pickpocket 5)	1	0.6	0.41			
15	Nup58 (Nucleoporin 58kD)	1	-0.13	-0.56			
16	Dlip1 (Dorsal interacting protein 1)	1	0.52	0.3			
17	CG34033	1	-0.06				
18	Arr2 (Arrestin 2)	1	0.55	-0.52			
19	Polr1H (RNA polymerase I subunit H)	1	0.2	-0.98			
20	Nse4 (Non-SMC element 4)	1	-0.53	0.32			
21	CG13887	1	0.46	0.42			
22	CG13539	1	0.27	0.34			
23	Cdc14 (Cell division cycle 14)	1	0.56	0.59			
24	FBXO11 (F-box protein 11)	1	0.39	0.49			
25	Aprt (Adenine phosphoribosyltransferase)	1	0.12	-0.19			
26	Ggt-1 (gamma-glutamyl transpeptidase)	1	0.33	0.32			
27	CG43218	1	-1.13	0.5			
28	CG12692	1	0.32	0.49			
29	BCAS2	1	-0.56	-0.16			
30	Or43b (Odorant receptor 43b)	1	0.24	0.21			
31	CG30099	1	0.23	0			
32	CG8569	1	0.2	0.4			
33	mrn (marionette)	1	-1.79	-1.7			reduced secretion
34	CRIF (CR6-interacting factor)	1	0.23	-0.1			
35	Pkn (Protein kinase N)	1	0.22	0.32			
36	Pkn (Protein kinase N)	2	0.31	0.26			
37	CG14929 + CG14930	1	0.25	0.23			
38	Mccc1 (Methylcrotonoyl-CoA carboxylase 1)	1	0.13	0.27			
39	CG43181	1	0.21	0.05			
40	CG3473	1	-0.05	0.27			
41	CG32795	1	0.2	0.28			
42	CG32795	2	0.09	0.22			
43	GstZ2 (Glutathione S transferase Z2)	1	0.33	0.35			
44	CG15169	1	0.2	0.14			
45	Hsp110 (Heat shock protein 110)	1	-0.09	0.76			
46	Wdr24 (WD repeat domain 24)	1	-0.89	-1.27			
47	Snx17 (Sorting nexin 17)	1	0.07	0.35			
48	ZnT49B (Zinc transporter 49B)	1	0.38	0.24			
49	Tsp66A + CG42661 + CG42660	1	0.37	0.13			
50	CG31693	1	-0.04	0.44			
51	CG3587	1	0.38	0.4	0.21	0.4	
52	CG3587	2	0.03	0.42			
53	CG16736	1	-0.1	0.39			
54	boss (bride of sevenless)	1	0.27	0.3			
55	aft (adrift)	1	0.22	0.1			
56	B-H1 (BarH1)	1	0.51	0.22	0.01	-0.27	reduced secretion
57	B-H1 (BarH1)	2	-0.11	0.22			
58	NdufV3 (NADH:ubiquinone oxidoreductase subunit V3)	1	0.29	0.52			
59	CG2652	1	0.45	-0.1	0.26	0.03	
60	CG2652	2	0.27	0.22			
61	loj (logjam)	1	0.49	0.42			
62	CG14154	1	0.14	0.36			
63	CG13407	1	0.38	0.44			
64	pzg (putzig)	1	-0.28	0.17			
65	Ir67a (Ionotropic receptor 67a)	1	0.24	0.24			
66	CG17477	1	0.11	0.32			
67	CG11436	1	0.34	0.27			
68	Liprin-beta	1	-0.26	0.11			
69	CheA7a (Chemosensory protein A 7a)	1	0.39	0.65			
70	Gmap (Golgi microtubule-associated protein)	1	0.26	-0.28			
71	Gmap (Golgi microtubule-associated protein)	2	0.11	0.22			
72	CG11790	1	0.43	0.51			
73	lncRNA:CR31386 (long non-coding RNA:CR31386)	1	1.66	0.84			
74	CG12490	1	0.08	0.07			
75	Egfr (Epidermal growth factor receptor)	1	0.09	-0.28			
76	Egfr (Epidermal growth factor receptor)	2	-0.03	0.03			
77	CG14374	1	0.36	0.62			
78	DCTN5-p25 (Dynactin 5, p25 subunit)	1	0.17	0.21			
79	CG7695	1	0.26	0.12			
80	CG13135	1	-0.58	-0.04			
81	XRCC1	1	0.52	0.52			
82	nclb (no child left behind)	1	0.44	0.43			
83	CG3386	1	0.39	0.35			
84	trio	1	-0.02	0.31			
85	trio	2	0.3	-1.04			
86	trio	3	0.53	0.42			
87	Cpr47Ee (Cuticular protein 47Ee)	1	-2.88	-3.17			reduced secretion
88	CG5282	1	0.35	0.45			
89	tbc (trabuco)	1	-1.55	-0.43			
90	CG12535	1	0.1	-0.24			
91	Klp67A (Kinesin-like protein at 67A)	1	-0.3	-0.63			
92	scpr-A + scpr-C	1	0.33	-0.14			
93	Cisd2 (CDGSH iron sulfur domain 2)	1	0.24	0.22			
94	CG5561	1	-0.07	0.16			
95	CG10395	1	0.24	0.26			
96	CG33290	1	0.49	0.12			
97	CG4271	1	0.38	0.58			
98	Rrp1 (Recombination repair protein 1)	1	0.56	0.45	0.48	0.06	
99	TBC1D16 (TBC1 domain family member 16)	1	0.09	-0.01			
100	lncRNA:CR43421 (long non-coding RNA:CR43421)	1	0.16	-0.17			
101	P5CS (Delta[1]-pyrroline-5-carboxylate synthase)	1	0.29	0.21			
102	P5CS (Delta[1]-pyrroline-5-carboxylate synthase)	2	0.18	0.15			
103	CG10657	1	-2.79	0.38	0.26	-1.16	
104	CG18336	1	0.16	-0.01			
